Source: patent US20250032566A1 (YEDA RESEARCH AND DEVELOPMENT, published 2025)
Results are given in words; binding and its absence hold for the method and conditions named. Binding seen in cells or lysates may run through a third protein. Some entries that bind do so weakly or less than the wild type. Tags and fused reporters may be left off the sequences shown.

Molecular target: T1, DSR2(H171A), SIR2 active-site mutant of DSR2 from Bacillus subtilis 29R (Bacillus subtilis 29R) (UniProt P0DXN8)
T1 sequence: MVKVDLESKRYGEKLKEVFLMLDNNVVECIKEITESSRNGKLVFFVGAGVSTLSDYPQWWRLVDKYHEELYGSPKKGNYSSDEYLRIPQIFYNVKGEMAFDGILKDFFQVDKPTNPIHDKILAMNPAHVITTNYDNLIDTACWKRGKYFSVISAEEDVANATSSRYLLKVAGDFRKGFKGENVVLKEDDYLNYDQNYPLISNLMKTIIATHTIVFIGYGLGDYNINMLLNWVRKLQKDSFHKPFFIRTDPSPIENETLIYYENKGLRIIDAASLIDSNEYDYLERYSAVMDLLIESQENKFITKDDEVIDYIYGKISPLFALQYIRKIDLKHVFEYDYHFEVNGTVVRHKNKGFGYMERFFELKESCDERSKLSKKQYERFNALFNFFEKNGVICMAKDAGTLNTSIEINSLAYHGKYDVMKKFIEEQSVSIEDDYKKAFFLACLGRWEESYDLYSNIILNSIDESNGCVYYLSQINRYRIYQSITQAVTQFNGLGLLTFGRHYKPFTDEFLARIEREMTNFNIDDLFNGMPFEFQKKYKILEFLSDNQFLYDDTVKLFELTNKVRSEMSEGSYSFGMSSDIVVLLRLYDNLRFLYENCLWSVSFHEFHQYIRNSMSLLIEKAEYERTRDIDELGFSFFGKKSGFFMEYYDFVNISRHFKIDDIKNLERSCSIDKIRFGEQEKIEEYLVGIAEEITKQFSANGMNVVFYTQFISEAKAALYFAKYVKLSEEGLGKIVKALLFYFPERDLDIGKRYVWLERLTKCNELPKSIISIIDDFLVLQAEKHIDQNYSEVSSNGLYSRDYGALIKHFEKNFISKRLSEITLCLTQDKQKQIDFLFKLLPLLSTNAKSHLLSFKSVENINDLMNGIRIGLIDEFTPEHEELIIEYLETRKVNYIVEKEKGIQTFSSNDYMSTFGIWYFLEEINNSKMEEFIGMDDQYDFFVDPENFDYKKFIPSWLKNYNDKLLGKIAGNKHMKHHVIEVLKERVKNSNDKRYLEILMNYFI
Experiment: Strep-tag pulldown (MagStrep XT beads) from E. coli co-expressing DSR2(H171A) and DSAD1 with C-terminal tag; SDS-PAGE, Coomassie

B1: DSAD1 (DSR Anti Defense 1) with C-terminal twin streptavidin tag (protein)
chain: MIEIFKDTGATHDLVYHSKINTFVWDVEFDIVLSDSKELNKCYFVKCFNPYRINGKCDFAVSSIDIFSEGKRLLIENEFNFKITKAVHVATSKDVTEIVLHLSERISSPFPIVKEVVYLD
- binding: binds
